Results are given in words; binding and its absence hold for the method and conditions named. In cells and extracts the contact can be indirect. A yes stands for co-enrichment or nearness to the bait. Other partners may have been found. For some assays here: No binding means not detected with the bait. For some assays here: Tags and fused reporters may be left off the sequences shown.
T1: histone chaperone NAP1 (Drosophila (endogenous in embryos and S2 cells)) (UniProt Q9W1G7)
T1 sequence: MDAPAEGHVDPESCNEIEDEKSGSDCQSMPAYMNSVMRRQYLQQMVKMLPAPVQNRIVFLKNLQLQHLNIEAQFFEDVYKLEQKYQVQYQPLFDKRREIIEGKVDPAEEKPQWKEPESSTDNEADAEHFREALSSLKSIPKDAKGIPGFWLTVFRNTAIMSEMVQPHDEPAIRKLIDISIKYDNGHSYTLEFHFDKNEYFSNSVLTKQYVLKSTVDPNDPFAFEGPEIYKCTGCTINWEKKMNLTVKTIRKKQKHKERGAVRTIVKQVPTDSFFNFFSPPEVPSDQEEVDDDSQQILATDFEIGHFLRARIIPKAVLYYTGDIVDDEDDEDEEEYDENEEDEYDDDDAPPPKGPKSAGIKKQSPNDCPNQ

Sequences of proteins named here, by UniProt entry; tags and fusion partners are left off.
UniProt P23696: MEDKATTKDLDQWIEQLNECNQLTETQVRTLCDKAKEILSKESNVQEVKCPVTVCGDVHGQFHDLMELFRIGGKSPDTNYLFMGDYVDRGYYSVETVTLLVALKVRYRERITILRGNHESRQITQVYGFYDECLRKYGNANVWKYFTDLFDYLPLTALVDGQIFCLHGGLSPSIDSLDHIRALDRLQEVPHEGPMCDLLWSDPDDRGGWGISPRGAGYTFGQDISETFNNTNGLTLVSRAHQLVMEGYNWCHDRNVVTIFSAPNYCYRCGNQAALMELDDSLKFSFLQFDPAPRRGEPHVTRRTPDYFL

T2: cohesin subunit SMC1 (Drosophila (endogenous in embryos and S2 cells)) (UniProt Q9VCD8)
T2 sequence: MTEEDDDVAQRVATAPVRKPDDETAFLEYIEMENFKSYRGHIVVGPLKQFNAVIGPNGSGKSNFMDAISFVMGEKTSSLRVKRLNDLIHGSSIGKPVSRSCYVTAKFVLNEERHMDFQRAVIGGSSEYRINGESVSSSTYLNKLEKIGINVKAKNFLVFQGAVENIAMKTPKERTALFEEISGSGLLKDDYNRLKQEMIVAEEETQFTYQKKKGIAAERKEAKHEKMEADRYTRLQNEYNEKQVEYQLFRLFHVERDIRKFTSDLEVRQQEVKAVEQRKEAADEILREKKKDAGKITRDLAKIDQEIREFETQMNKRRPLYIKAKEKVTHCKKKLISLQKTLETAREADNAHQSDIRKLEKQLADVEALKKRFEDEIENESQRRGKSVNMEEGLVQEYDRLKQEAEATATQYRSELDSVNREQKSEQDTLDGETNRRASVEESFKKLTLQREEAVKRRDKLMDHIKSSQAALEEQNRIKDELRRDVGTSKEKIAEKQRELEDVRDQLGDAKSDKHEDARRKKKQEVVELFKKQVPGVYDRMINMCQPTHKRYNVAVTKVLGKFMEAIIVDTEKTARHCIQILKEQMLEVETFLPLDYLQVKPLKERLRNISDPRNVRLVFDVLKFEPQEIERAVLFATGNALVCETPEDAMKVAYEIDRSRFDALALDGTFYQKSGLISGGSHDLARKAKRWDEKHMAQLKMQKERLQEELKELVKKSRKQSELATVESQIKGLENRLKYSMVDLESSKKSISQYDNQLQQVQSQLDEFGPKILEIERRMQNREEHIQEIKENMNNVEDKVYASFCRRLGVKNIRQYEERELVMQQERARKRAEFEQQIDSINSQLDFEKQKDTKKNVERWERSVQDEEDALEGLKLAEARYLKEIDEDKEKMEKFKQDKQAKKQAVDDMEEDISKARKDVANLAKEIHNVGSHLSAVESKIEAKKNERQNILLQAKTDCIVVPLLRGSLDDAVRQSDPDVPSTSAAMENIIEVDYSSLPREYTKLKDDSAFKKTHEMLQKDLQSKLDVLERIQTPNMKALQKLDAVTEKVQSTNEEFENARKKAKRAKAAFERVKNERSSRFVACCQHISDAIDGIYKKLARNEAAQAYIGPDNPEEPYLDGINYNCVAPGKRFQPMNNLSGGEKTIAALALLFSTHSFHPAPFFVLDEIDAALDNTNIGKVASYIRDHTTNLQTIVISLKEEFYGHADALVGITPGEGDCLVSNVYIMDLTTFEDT


How the values were obtained:
Test in all cases: affinity purification with mass spectrometry; NAP1, SA, SMC1 or PP2A (catalytic subunit) immunopurified from 0-12 hour Drosophila embryo nuclear extract (NAP1 and SA also from S2 cells) with antibodies cross-linked to protein A sepharose; washes with HEMG, 600 mM KCl, 0.1% NP-40; SDS-PAGE, mass spectrometry
[1] = biological target: cohesin subunit stromalin (SA) (Drosophila (endogenous in embryos and S2 cells))
[2] = biological target: T1, histone chaperone NAP1 (Drosophila (endogenous in embryos and S2 cells))
[3] = biological target: protein phosphatase 2A (PP2A) catalytic subunit (Drosophila (endogenous in embryos and S2 cells)) (UniProt P23696)
[4] = biological target: T2, cohesin subunit SMC1 (Drosophila (endogenous in embryos and S2 cells))

| Binder | binding [1] | binding [2] | binding [3] | binding [4] |
| --- | --- | --- | --- | --- |
| cohesin subunit SMC1 (protein, UniProt Q9VCD8 1-1238) MTEEDDDVAQRVATAPVRKPDDETAFLEYIEMENFKSYRGHIVVGPLKQFNAVIGPNGSGKSNFMDAISFVMGEKTSSLRVKRLNDLIHGSSIGKPVSRSCYVTAKFVLNEERHMDFQRAVIGGSSEYRINGESVSSSTYLNKLEKIGINVKAKNFLVFQGAVENIAMKTPKERTALFEEISGSGLLKDDYNRLKQEMIVAEEETQFTYQKKKGIAAERKEAKHEKMEADRYTRLQNEYNEKQVEYQLFRLFHVERDIRKFTSDLEVRQQEVKAVEQRKEAADEILREKKKDAGKITRDLAKIDQEIREFETQMNKRRPLYIKAKEKVTHCKKKLISLQKTLETAREADNAHQSDIRKLEKQLADVEALKKRFEDEIENESQRRGKSVNMEEGLVQEYDRLKQEAEATATQYRSELDSVNREQKSEQDTLDGETNRRASVEESFKKLTLQREEAVKRRDKLMDHIKSSQAALEEQNRIKDELRRDVGTSKEKIAEKQRELEDVRDQLGDAKSDKHEDARRKKKQEVVELFKKQVPGVYDRMINMCQPTHKRYNVAVTKVLGKFMEAIIVDTEKTARHCIQILKEQMLEVETFLPLDYLQVKPLKERLRNISDPRNVRLVFDVLKFEPQEIERAVLFATGNALVCETPEDAMKVAYEIDRSRFDALALDGTFYQKSGLISGGSHDLARKAKRWDEKHMAQLKMQKERLQEELKELVKKSRKQSELATVESQIKGLENRLKYSMVDLESSKKSISQYDNQLQQVQSQLDEFGPKILEIERRMQNREEHIQEIKENMNNVEDKVYASFCRRLGVKNIRQYEERELVMQQERARKRAEFEQQIDSINSQLDFEKQKDTKKNVERWERSVQDEEDALEGLKLAEARYLKEIDEDKEKMEKFKQDKQAKKQAVDDMEEDISKARKDVANLAKEIHNVGSHLSAVESKIEAKKNERQNILLQAKTDCIVVPLLRGSLDDAVRQSDPDVPSTSAAMENIIEVDYSSLPREYTKLKDDSAFKKTHEMLQKDLQSKLDVLERIQTPNMKALQKLDAVTEKVQSTNEEFENARKKAKRAKAAFERVKNERSSRFVACCQHISDAIDGIYKKLARNEAAQAYIGPDNPEEPYLDGINYNCVAPGKRFQPMNNLSGGEKTIAALALLFSTHSFHPAPFFVLDEIDAALDNTNIGKVASYIRDHTTNLQTIVISLKEEFYGHADALVGITPGEGDCLVSNVYIMDLTTFEDT | binds | binds | binds | – |
| MAU2/SCC4 (protein, UniProt Q9VFC0 1-632) MSASTSTSTAASQDACYISLLGLAEYFRTSQPPNIKKCIQCLQALFTFMPPSKVEARTHLQMGQILMAYTKNIDLARQHLEKAWSISEPLPNFDVKFDTASLLAQLHLQTDRNSHQAKAMLRRAVELSQNNVYWHCKLLLQLAQIHASDREYSLASELLAVGAESADEASATYLKVLFLLSRAMILMIERKTNDVLALLNSAGQIIDNNIPNPHQKEYLKVFFLVLQVCYYLALGQVKTVKPSLKQLQMSIQTIMAPNWPSDEAIFGANQLEMFVWLPKEQLYVLVYLVTVSHSMMAGYMDKAQKYTEKALTQIEKLKQQEDKPILSVFKVILLEHIVMCRMVMGNRELAIREIAAARDVCMAAPQRSLLRRHSAQLHCLIGLYSMSTNLFEHAERQFVVCVSETSERDLKLFANLNLAIIYLRTKRDTDLKQILDAVSTENTHTYSSQALMGGFYYVQGLHAFHKNSFHEAKRFLRETLKMANAEDLNRLTSCSLVLLSHVFLSIGNSKESMNMVTPAMQLASKIPDIHVQLWGSAILKDLHRMSKDVQHEKDAYANHVKYSENLIADQRKCVQSAHHELVNWFQGDPPVTSGPPAAPVLLMPESSVTASVPVIASTSTAMQPAGQYGQFY | binds | – | binds | binds |
| MRG15 (protein, UniProt Q9Y0I1 1-424) MGEVKPAKVENYSTGTDANTLFVDGERVLCFHGPLIYEAKVLKTKPDATPVEYYIHYAGWSKNWDEWVPENRVLKYNDDNVKRRQELARQCGERSKKDNKKGSAKAKKMEQMRNESRASTPSKDSNTSQSTASSTPTTSAGPGSKSEAGSTGTTTTNSTANSTTSRAHRKSTQSTPSTARPGTPSDKKEDPAAAETTEEEGPVAPKKKRMSEQRPSLTGSDVAEKPLPPTTTPSTPTTEPAPCVESEEAYAAKVEVKIKIPDELKHYLTDDWYAVVREHKLLELPAKVTVQQISEQYLAHKKSVKSTSASKEVAINDVLDGIVEYFNVMLGSQLLYKFERTQYADVMQKHPDTPLSELYGSFHLLRLFVRLGSMLSYSALDQQSMQNLLTHVQDFLKFLVKNSSIFFSMSNFINVDPEYVRNAQ | no binding | binds | – | no binding |

Next, values leading:

| binding [1] | binding [2] | binding [3] | binding [4] | Binder |
| --- | --- | --- | --- | --- |
| binds | – | – | binds | histone chaperone NAP1 (protein, UniProt Q9W1G7 1-370) MDAPAEGHVDPESCNEIEDEKSGSDCQSMPAYMNSVMRRQYLQQMVKMLPAPVQNRIVFLKNLQLQHLNIEAQFFEDVYKLEQKYQVQYQPLFDKRREIIEGKVDPAEEKPQWKEPESSTDNEADAEHFREALSSLKSIPKDAKGIPGFWLTVFRNTAIMSEMVQPHDEPAIRKLIDISIKYDNGHSYTLEFHFDKNEYFSNSVLTKQYVLKSTVDPNDPFAFEGPEIYKCTGCTINWEKKMNLTVKTIRKKQKHKERGAVRTIVKQVPTDSFFNFFSPPEVPSDQEEVDDDSQQILATDFEIGHFLRARIIPKAVLYYTGDIVDDEDDEDEEEYDENEEDEYDDDDAPPPKGPKSAGIKKQSPNDCPNQ |
| binds | binds | binds | – | cohesin subunit SMC3 (protein, UniProt Q9VXE9 1-1200) MHIKQIIIQGFKSYKDQTVVEPFDKRHNVVVGRNGSGKSNFFYAIQFVLSDEFTHLRPEQRQSLLHEGTGARVISAYVEIIFDNSDNRVPIDKEEIFLRRVIGAKKDQYFLNKKVVPRNEVVNLLESAGFSSSNPYYIVKQGKINQMATAADSYRLKLLREVAGTRVYDERKEESLNLLRETDSKVEKISEYLKTIEDRLQTLEEEKEELKEYQKWDKTRRTLEYIRYETELKDTKKALDELQLQRKSSSDKKKIYNIEIQKAQEKIKDVQKNLKEAKKKVQSTKEERSVLMTEQQQLLREKTKLDLTIVDLNDEVQGDNKSKERADQELKNLKVTIAEREKELDDVKPKYEAMKRKEEDCSRELQLKEQKRKELYAKQGRGSQFSSREDRDKWITNELKSISKQTRDKIAHHAKLVEDLKKDATSEKDLGQKIEEHSSELEQLRLQIDEHNKKYYELKKTKDQHQSMRNELWRKETQMTQQLQTHKEELSRADQALRSMAGKPILNGCDSVRKVLDSFVERGGQSAEIARAYYGPVIENFSCDKTIYTAVEVTAANRLFHHIVESEYEGTQILKEMNKLKLPGEVTFMPLNRLQVKIHDYPDDPDSIPMISKLKYDEQHDKALRYIFGKTLICRNLERATELAKSTGLDCVTLDGDQVSSKGSLTGGYFNTSRSRLEMQKKRTEYTSQIAEFEKKLSKLRNELKSTENNINSIVSEMQKTETKQGKSKDVFEKVQGEIRLMKEELVRIEQYRAPKERSLAQCKASLESMTSTKSSLEAELKQELMSTLSSQDQREIDQLNDDIRRLNQENKEAFTQRMQFEVRKNKLDNLLINNLFRRRDELIQALQEISVEDRKRKLNNCKTELVSAEKRIKKVNSDLEEIEKRVMEAVQLQKELQQELETHVRKEKEAEENLNKDSKQLEKWSTKENMLNEKIDECTEKIASLGAVPLVDPSYTRMSLKNIFKELEKANQHLKKYNHVNKKALDQFLSFSEQKEKLYRRKEELDIGDQKIHMLIQSLEMQKVEAIQFTFRQVAQNFTKVFKKLVPMGAGFLILKTKDNEGDEMEKEVENSDAFTGIGIRVSFTGVEAEMREMNQLSGGQKSLVALALIFSIQKCDPAPFYLFDEIDQALDAMHRKAVANMIHELSDTAQFITTTFRPELLENAHKFYGVRFRNKVSHIDCVTREEAKDFVEDDSTHA |
